Measured data: PubChem BioAssay AID743121 (NCATS, 2013)

Assay: 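Partners whose loss is lethal together with topoisomerase I blockade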 (primary screen)
Cells: MDA-MB-231 cells, a human breast cancer line
Knock-down reagent: single siRNA against human genes, 20 nM siRNA (0.8 pmol per well)
Duration: 120 h (drug added 48 h after transfection, read 72 h later)
Conditions: camptothecin 20 nM (about EC30) for 72 h; vehicle 0.1% DMSO in parallel plates
Read-out: 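Cell viability by ATP luminescence (CellTiter-Glo) as % of non-targeting siRNA wells, and the log2 ratio of viability without drug over viability with camptothecin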
Scale: log2 vehicle/camptothecin viability: higher = stronger sensitisation to camptothecin; viability with camptothecin: higher = more viable cells
Units: viability with camptothecin in % of control
Hit rule: 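Each gene scored by redundant siRNA activity (RSA) over its individual siRNA ratios; a gene is called active at p < 0.001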
Shown is one part, drawn at random, of about 26,000 deposited reagents. In the full data, 167 (0.63%) are marked active. 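Calls are per gene from RSA p-values that are not deposited; an individual active-marked siRNA can sensitise only weakly.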 A number with no mark means an inactive call. Not all columns of the deposit are shown.

With knock-down of HAS1 (hyaluronan synthase 1) [SID164368529], the record shows log2 vehicle/camptothecin viability 0.445; viability with camptothecin 69.4.
Knock-down of HAS1 (hyaluronan synthase 1) [SID164368530] came out at: log2 vehicle/camptothecin viability -0.191; viability with camptothecin 73.
After knock-down of HAS1 (hyaluronan synthase 1) [SID164368531] the results were log2 vehicle/camptothecin viability -0.778; viability with camptothecin 50.7.
For HAS1 (hyaluronan synthase 1) [SID164368532], the values are log2 vehicle/camptothecin viability -0.497; viability with camptothecin 65.9.
Knock-down of MX1 (MX dynamin like GTPase 1) [SID164376568] gave: log2 vehicle/camptothecin viability -0.308; viability with camptothecin 67.8.
Depletion of MX1 (MX dynamin like GTPase 1) [SID164376569] gave: log2 vehicle/camptothecin viability -0.106; viability with camptothecin 95.
MX1 (MX dynamin like GTPase 1) [SID164376570] showed log2 vehicle/camptothecin viability 0.158; viability with camptothecin 41.3.
Against MX1 (MX dynamin like GTPase 1) [SID164376571], the entry reads log2 vehicle/camptothecin viability 0.0761; viability with camptothecin 79.1.
Silencing of PGR (progesterone receptor) [SID164380503] resulted in: log2 vehicle/camptothecin viability -0.561; viability with camptothecin 93.1.
For PGR (progesterone receptor) [SID164380506], the entry reads log2 vehicle/camptothecin viability -0.308; viability with camptothecin 112.
PGR (progesterone receptor) [SID164380507] gave log2 vehicle/camptothecin viability -0.42; viability with camptothecin 103.
OR4N4 (olfactory receptor family 4 subfamily N member 4) [SID164614995] scored log2 vehicle/camptothecin viability -0.219; viability with camptothecin 78.5.
For OR4N4 (olfactory receptor family 4 subfamily N member 4) [SID164614998] the deposit lists log2 vehicle/camptothecin viability -0.116; viability with camptothecin 65.5.
OR4N4 (olfactory receptor family 4 subfamily N member 4) [SID164614999] showed log2 vehicle/camptothecin viability -0.389; viability with camptothecin 50.1.
OR4N4 (olfactory receptor family 4 subfamily N member 4) [SID164615000] gave log2 vehicle/camptothecin viability -0.0921; viability with camptothecin 29.6.
After knock-down of DNMT3L (DNA methyltransferase 3 like) [SID164468687], the screen gave log2 vehicle/camptothecin viability -0.385; viability with camptothecin 59.1.
With knock-down of DNMT3L (DNA methyltransferase 3 like) [SID164468688], the screen gave log2 vehicle/camptothecin viability 0.296; viability with camptothecin 65.9.
Knock-down of DNMT3L (DNA methyltransferase 3 like) [SID164468692] resulted in: log2 vehicle/camptothecin viability -0.391; viability with camptothecin 62.4.
Against DNMT3L (DNA methyltransferase 3 like) [SID164468693] the deposit lists log2 vehicle/camptothecin viability -0.559; viability with camptothecin 47.6.
After knock-down of NRAS (NRAS proto-oncogene, GTPase) [SID164378471], the record shows log2 vehicle/camptothecin viability -0.432; viability with camptothecin 113.
Knock-down of NRAS (NRAS proto-oncogene, GTPase) [SID164378472] gave: log2 vehicle/camptothecin viability -0.304; viability with camptothecin 31.
For NRAS (NRAS proto-oncogene, GTPase) [SID164378474] the deposit lists log2 vehicle/camptothecin viability -0.399; viability with camptothecin 104.
Depletion of NRAS (NRAS proto-oncogene, GTPase) [SID164378475] came out at: log2 vehicle/camptothecin viability 0.117; viability with camptothecin 85.6.
For OXER1 (oxoeicosanoid receptor 1) [SID164579772], the values are log2 vehicle/camptothecin viability -0.0898; viability with camptothecin 97.3.
After knock-down of OXER1 (oxoeicosanoid receptor 1) [SID164579775] the results were log2 vehicle/camptothecin viability -0.475; viability with camptothecin 85.2.
OXER1 (oxoeicosanoid receptor 1) [SID164579776] gave log2 vehicle/camptothecin viability 0.469; viability with camptothecin 9.
Knock-down of OXER1 (oxoeicosanoid receptor 1) [SID164579778] gave: log2 vehicle/camptothecin viability 0.522; viability with camptothecin 55.4.
For PTH2R (parathyroid hormone 2 receptor) [SID164383769], the values are log2 vehicle/camptothecin viability -0.198; viability with camptothecin 54.9.
After knock-down of PTH2R (parathyroid hormone 2 receptor) [SID164383770] the results were log2 vehicle/camptothecin viability 0.53; viability with camptothecin 13.2.
Depletion of PTH2R (parathyroid hormone 2 receptor) [SID164383771] resulted in: log2 vehicle/camptothecin viability -0.577; viability with camptothecin 111.
Knock-down of PTH2R (parathyroid hormone 2 receptor) [SID164383773] gave: log2 vehicle/camptothecin viability -0.362; viability with camptothecin 52.2.
Against ZMYND8 (zinc finger MYND-type containing 8) [SID164449125] the deposit lists log2 vehicle/camptothecin viability -0.14; viability with camptothecin 116.
Against ZMYND8 (zinc finger MYND-type containing 8) [SID164449127], the values are log2 vehicle/camptothecin viability -0.00931; viability with camptothecin 90.1.
ZMYND8 (zinc finger MYND-type containing 8) [SID164449128] gave log2 vehicle/camptothecin viability -0.538; viability with camptothecin 20.6.
With knock-down of ZMYND8 (zinc finger MYND-type containing 8) [SID164449130], the record shows log2 vehicle/camptothecin viability -0.108; viability with camptothecin 103.
Depletion of GLDC (glycine decarboxylase) [SID164366687] came out at: log2 vehicle/camptothecin viability 0.0482; viability with camptothecin 69.9.
GLDC (glycine decarboxylase) [SID164366688] gave log2 vehicle/camptothecin viability 1.12; viability with camptothecin 28.8.
GLDC (glycine decarboxylase) [SID164366690] scored log2 vehicle/camptothecin viability -0.0125; viability with camptothecin 98.8.
Against GLDC (glycine decarboxylase) [SID164366692], the values are log2 vehicle/camptothecin viability 0.0131; viability with camptothecin 62.6.
CDC14C (cell division cycle 14C) [SID164580160] gave log2 vehicle/camptothecin viability 0.0988; viability with camptothecin 48.6.
Knock-down of CDC14C (cell division cycle 14C) [SID164580164] gave: log2 vehicle/camptothecin viability 0.0571; viability with camptothecin 73.9.
CDC14C (cell division cycle 14C) [SID174316019] showed log2 vehicle/camptothecin viability 0.128; viability with camptothecin 58.5.
For ATG5 (autophagy related 5) [SID164403990], the entry reads log2 vehicle/camptothecin viability 0.361; viability with camptothecin 41.9.
After knock-down of ATG5 (autophagy related 5) [SID164403991] the results were log2 vehicle/camptothecin viability -0.636; viability with camptothecin 26.2.
ATG5 (autophagy related 5) [SID164403993] showed log2 vehicle/camptothecin viability -0.215; viability with camptothecin 60.9.
Against ATG5 (autophagy related 5) [SID164403995], the entry reads log2 vehicle/camptothecin viability 0.0495; viability with camptothecin 96.1.

Sorted by “viability with camptothecin” (lowest first): 6 of the entries above.
OR4N4 (olfactory receptor family 4 subfamily N member 4) [SID164614998] — log2 vehicle/camptothecin viability = -0.116; viability with camptothecin = 65.5
OR4N4 (olfactory receptor family 4 subfamily N member 4) [SID164614995] — log2 vehicle/camptothecin viability = -0.219; viability with camptothecin = 78.5
MX1 (MX dynamin like GTPase 1) [SID164376571] — log2 vehicle/camptothecin viability = 0.0761; viability with camptothecin = 79.1
PGR (progesterone receptor) [SID164380503] — log2 vehicle/camptothecin viability = -0.561; viability with camptothecin = 93.1
PGR (progesterone receptor) [SID164380507] — log2 vehicle/camptothecin viability = -0.42; viability with camptothecin = 103
PGR (progesterone receptor) [SID164380506] — log2 vehicle/camptothecin viability = -0.308; viability with camptothecin = 112
